Results as given in publication PMC5794198, “Inhibitors of Trypanosoma cruzi Sir2 related protein 1 as potential drugs against Chagas disease” (PLoS Neglected Tropical Diseases, 2018).

tested on: T. cruzi epimastigotes overexpressing TcSir2rp1 (OE) with the pTcINDEX; format: cell-based, Trypanosoma cruzi; conditions: not given
Procedure: For the generation of transgenic cell lines, 15 μg of the constructs were digested overnight (SpeI for the pTcINDEX construct; NotI for the knockout constructs), precipitated with sodium acetate / ethanol, and introduced into 1.5 x 10^7 epimastigote cells in the logarithmic phase of growth via transfection using an AMAXA Nucleofector II device (program V-33) with the Human T-cell nucleofector kit (Lonza). Parasites were suspended in fresh growth medium and incubated for 24-hrs to allow for the expression of drug selectable markers, prior to the addition of appropriate antibiotic (Blasticidin S (Thermo Fisher Scientific; 10 μg/mL); Hygromycin B (Formedium; 100 μg/mL); and Puromycin (Calbiochem; 5 μg/mL). Cells were then incubated for a further four- to six-weeks to allow for the selection of transgenic parasites and then genetically verified by PCR using ORF and drug selection primers.
The TcSir2rp1 open reading frame (TriTryp accession number TcCLB.508207.150) was amplified from CL-Brener genomic DNA using KOD polymerase (Novagen). The resulting PCR product encoding the full-length ORF was cloned directly into the T. cruzi expression vector, pTcINDEX [49], using NotI and BamHI restriction sites.
T. cruzi epimastigotes were seeded at 1.25 x 10^6 cells/mL in a 96-well plate in the presence of varying concentrations of test compounds. Following a 64-hour incubation, 15 μL of a resazurin solution (Sigma-Aldrich; 1.1 mg/mL in PBS). Following an additional 6-hr incubation, cell viability was determined by measuring the fluorescence of each culture with a BioTek FLX800 Fluorescence Microplate Reader (excitation and emission wavelengths of 540/535 nm and 590/610 nm, respectively) and associated Gen5 Reader Control 2.0 software. EC50 values were determined by nonlinear regression to a sigmoidal dose-response curve using GraFit software (Version 5.0, Erithacus Software). Each assay was performed in at least triplicate in parallel to the known trypanocidal agent nifurtimox.

Structure (SMILES)	Fold-increase of EC50 (OE vs WT)
O=C1c2cccc3cccc(c23)C(=O)N1CCCNCCCCCNCCCN1C(=O)c2cccc3cccc(c23)C1=O [Compound 2]	4.49
O=C1c2cccc3cccc(c23)C(=O)N1CCCNCCCCCCNCCCN1C(=O)c2cccc3cccc(c23)C1=O [Compound 3]	3.04
O=C1c2cccc3cccc(c23)C(=O)N1CCCNCCCCCCCCCNCCCN1C(=O)c2cccc3cccc(c23)C1=O [Compound 6]	4.81
O=C1c2cccc3cccc(c23)C(=O)N1CCCNCCCCNCCCNCCCN1C(=O)c2cccc3cccc(c23)C1=O [Compound 9, BNIP Spermidine]	2.77
CC1CS(=O)(=O)CCN1/N=C/c1ccc([N+](=O)[O-])o1 (stereo not drawn) [Nifurtimox, nifurtimox, reference compound]	1.06

same assay, conditions: listed as nifurtimox

Structure (SMILES)	Fold-increase of EC50 (OE vs WT)
CC1CS(=O)(=O)CCN1/N=C/c1ccc([N+](=O)[O-])o1 (stereo not drawn) [Nifurtimox, nifurtimox, reference compound]	did not alter significantly
